Measurements: article PMC8269059, “Glycyrrhizin Derivatives Suppress Cancer Chemoresistance by Inhibiting Progesterone Receptor Membrane Component 1” (Cancers, 2021)
These are yes or no findings as the source states them, for the method shown. Binding seen in cells or lysates may run through a third protein. Binding calls can cover weak binding; strength is not graded here.

Sequences of proteins named here, by UniProt entry; tags and fusion partners are left off. A change or cut given only in a name is not applied to a line headed by its entry. Residues count along the entry.
UniProt O00264, residues 44-195: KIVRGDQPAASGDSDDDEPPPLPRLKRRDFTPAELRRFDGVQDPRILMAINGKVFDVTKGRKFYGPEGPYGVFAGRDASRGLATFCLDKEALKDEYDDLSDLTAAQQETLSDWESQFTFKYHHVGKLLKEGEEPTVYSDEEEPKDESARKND
UniProt P08684: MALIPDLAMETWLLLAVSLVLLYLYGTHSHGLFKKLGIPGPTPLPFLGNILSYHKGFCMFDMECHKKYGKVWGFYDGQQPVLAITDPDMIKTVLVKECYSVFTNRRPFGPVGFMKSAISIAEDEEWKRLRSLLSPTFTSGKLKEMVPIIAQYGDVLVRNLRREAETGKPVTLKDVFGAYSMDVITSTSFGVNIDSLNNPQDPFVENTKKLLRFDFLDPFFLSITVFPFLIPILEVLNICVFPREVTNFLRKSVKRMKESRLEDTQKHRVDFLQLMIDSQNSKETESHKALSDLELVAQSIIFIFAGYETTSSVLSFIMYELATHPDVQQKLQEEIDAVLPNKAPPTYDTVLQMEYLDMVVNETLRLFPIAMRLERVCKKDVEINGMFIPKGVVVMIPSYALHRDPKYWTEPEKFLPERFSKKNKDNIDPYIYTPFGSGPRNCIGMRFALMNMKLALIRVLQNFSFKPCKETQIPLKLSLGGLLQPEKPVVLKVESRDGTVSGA

Molecular target: FLAG-PGRMC1 (a.a. 44-195) (human) (UniProt O00264)
Experiment: co-IP; in vitro binding assay: 1 ug purified CYP3A4 with 10 ug FLAG-PGRMC1 (a.a. 44-195), treated with or without GL or GlucoGL, in 500 uL of 20 mM HEPES-NaOH pH 7.9, 100 mM NaCl, 0.2 mM EDTA, 10% glycerol, 0.1% NP40, 60 min at room temperature; captured on anti-FLAG (M2) agarose, eluted with FLAG peptide; western blotting; both purified

In the case of “cytochrome P450 3A4 (CYP3A4) (from UniProt P08684) (enzyme)”, the binding is reported as “binds”.
